This test concerns the target HLA-A0201 on T2 cells without added peptide (human). The test can be described thus: T2 stabilization, flow cytometry: BB7 (anti-HLA-A2) staining of T2 cells alone or pulsed with peptide at 50, 10, 2 ug/ml. The conditions noted are these: remark: other sources report otherwise. A general note: In flow cytometry, cells or beads pass a laser one at a time.

Here are results for two molecules from US20180134804A1.

No constants are given. Whether binding was seen depends on the method and setting. Binding calls can cover weak binding; strength is not graded here.

As to LVVVGACGV [RAS9-G12C peptide], the binding entry is “binds”.

With LVVVGADGV [RAS9-G12D peptide], the binding result is “binds”.
